± gives the standard deviation of the averaged measurements. This is a selection; strong and weak results do not stand in their true shares. Most values lie at the level of the controls, where differences are scatter.
Compound: Nc1ncnc2c1ncn2[C@@H]1O[C@H](COP(=O)(O)OP(=O)(O)OP(=O)(O)O)[C@@H](O)[C@H]1O [adenosine triphosphate]
Test: NP40-soluble protein abundance relative to vehicle (solubility fold change) (ratio); higher = more soluble protein in presence of ATP
Conditions: concentration: 0.1mM
Procedure, shortened: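 In three independent experiments, Jurkat crude lysate made by Dounce homogenisation was treated for 10 min at room temperature and then 3 min at 37 °C with eight concentrations ranging from 0.1 to 10 mM. It was then solubilised with 0.8% NP40 plus benzonase for 60 min at 4 °C and ultracentrifuged. The supernatant was TMT-labelled for LC-MS/MS, and each value is the fold change against the detergent-processed vehicle for the same replicate, using vsn-normalised intensities.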

Sequences of proteins named here, by UniProt entry; tags and fusion partners are left off. A change or cut given only in a name is not applied to a line headed by its entry.
UniProt Q9NX04: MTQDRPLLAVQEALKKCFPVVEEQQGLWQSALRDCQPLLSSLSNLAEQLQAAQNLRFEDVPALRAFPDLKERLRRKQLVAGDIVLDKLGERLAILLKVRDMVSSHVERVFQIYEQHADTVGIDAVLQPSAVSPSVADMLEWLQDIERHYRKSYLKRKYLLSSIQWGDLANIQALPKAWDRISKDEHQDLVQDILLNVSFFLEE
UniProt Q9NVP1: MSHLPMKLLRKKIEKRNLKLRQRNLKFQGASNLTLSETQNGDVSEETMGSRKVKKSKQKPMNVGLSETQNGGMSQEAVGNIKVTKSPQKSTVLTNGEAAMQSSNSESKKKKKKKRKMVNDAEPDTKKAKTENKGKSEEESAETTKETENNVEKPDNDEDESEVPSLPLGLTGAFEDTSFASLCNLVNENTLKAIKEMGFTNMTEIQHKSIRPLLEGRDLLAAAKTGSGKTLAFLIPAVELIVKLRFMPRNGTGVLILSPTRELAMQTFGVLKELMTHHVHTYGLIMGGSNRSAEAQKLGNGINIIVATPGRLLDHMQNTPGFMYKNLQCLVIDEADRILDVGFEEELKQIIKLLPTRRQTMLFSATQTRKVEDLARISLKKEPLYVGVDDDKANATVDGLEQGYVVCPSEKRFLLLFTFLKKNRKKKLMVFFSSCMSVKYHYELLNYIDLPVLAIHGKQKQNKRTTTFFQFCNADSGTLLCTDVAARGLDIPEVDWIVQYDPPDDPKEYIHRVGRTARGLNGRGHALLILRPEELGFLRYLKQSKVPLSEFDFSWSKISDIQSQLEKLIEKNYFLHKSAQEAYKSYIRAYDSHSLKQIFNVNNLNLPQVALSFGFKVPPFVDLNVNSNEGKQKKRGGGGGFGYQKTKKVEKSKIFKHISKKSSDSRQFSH
UniProt Q9NPF4: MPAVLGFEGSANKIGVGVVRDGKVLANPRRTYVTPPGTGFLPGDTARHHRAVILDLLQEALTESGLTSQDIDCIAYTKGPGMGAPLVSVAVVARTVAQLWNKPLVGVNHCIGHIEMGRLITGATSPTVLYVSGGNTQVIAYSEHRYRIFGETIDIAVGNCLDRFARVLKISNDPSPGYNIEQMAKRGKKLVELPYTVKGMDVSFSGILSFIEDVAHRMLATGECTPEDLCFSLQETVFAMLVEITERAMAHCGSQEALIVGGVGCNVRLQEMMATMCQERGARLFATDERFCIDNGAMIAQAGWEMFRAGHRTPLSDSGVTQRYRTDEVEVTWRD
UniProt Q9NWU1, whole entry: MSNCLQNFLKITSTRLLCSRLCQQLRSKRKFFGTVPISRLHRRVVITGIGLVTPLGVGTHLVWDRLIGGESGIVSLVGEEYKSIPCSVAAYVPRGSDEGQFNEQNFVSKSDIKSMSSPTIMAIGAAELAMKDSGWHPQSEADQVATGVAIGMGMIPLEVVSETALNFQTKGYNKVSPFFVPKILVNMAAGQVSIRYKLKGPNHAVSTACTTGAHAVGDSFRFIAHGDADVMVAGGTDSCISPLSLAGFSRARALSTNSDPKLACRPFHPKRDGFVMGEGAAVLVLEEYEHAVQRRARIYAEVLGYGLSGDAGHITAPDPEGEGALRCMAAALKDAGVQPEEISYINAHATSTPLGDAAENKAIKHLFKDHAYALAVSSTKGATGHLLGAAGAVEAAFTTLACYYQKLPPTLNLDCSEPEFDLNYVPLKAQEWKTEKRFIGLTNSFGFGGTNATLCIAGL
UniProt Q9NQG5: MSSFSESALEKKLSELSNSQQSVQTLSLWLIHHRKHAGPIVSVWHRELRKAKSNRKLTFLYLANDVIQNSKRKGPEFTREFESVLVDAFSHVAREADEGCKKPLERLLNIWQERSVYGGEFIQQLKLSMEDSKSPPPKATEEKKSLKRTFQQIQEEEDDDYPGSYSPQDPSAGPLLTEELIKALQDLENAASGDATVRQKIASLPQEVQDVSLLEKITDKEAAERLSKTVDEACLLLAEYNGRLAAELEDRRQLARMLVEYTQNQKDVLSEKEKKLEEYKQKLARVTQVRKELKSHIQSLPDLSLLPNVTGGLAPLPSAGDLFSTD
UniProt Q9NYK6: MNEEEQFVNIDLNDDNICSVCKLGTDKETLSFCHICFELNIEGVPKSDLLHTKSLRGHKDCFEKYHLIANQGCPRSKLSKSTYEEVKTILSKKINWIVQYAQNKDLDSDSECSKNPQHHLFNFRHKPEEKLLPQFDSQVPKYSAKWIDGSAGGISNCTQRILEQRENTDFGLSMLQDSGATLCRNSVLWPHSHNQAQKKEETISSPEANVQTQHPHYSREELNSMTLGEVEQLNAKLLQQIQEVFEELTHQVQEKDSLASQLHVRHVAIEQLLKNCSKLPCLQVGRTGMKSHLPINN
UniProt Q9P0I2: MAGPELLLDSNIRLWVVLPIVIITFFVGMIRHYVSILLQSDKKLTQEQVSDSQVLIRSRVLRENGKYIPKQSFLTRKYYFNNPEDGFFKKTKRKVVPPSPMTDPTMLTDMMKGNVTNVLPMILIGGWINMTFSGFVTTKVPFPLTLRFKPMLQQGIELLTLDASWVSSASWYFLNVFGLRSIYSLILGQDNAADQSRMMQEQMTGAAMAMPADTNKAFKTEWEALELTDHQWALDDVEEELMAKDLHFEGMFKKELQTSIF
UniProt Q9NVT9: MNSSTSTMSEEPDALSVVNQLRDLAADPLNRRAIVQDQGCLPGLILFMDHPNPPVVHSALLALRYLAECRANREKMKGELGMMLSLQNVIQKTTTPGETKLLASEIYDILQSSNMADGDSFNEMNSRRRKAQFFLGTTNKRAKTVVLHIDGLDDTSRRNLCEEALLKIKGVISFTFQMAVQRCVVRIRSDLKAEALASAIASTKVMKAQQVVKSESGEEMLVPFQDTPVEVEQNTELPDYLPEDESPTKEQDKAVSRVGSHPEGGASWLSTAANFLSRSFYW
UniProt Q9NYP7: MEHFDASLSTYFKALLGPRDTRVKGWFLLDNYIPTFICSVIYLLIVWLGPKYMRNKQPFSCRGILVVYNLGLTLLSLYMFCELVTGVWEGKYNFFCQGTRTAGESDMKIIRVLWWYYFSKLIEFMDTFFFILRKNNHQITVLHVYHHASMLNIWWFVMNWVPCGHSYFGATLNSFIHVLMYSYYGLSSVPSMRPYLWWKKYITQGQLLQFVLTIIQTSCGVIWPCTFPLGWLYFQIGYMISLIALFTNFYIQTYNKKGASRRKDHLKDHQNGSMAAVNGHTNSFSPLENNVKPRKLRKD
UniProt Q9NQ29: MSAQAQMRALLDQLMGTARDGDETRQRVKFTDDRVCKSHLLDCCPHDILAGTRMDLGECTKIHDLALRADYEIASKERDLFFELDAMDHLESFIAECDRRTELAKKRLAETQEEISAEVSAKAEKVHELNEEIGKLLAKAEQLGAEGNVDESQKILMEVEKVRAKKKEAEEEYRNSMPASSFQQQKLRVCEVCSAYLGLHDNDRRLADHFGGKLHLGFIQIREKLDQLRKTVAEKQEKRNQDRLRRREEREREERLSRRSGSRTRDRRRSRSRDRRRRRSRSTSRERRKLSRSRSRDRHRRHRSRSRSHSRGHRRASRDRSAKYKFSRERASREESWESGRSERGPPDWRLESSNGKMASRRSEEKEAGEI
UniProt Q9NQZ5: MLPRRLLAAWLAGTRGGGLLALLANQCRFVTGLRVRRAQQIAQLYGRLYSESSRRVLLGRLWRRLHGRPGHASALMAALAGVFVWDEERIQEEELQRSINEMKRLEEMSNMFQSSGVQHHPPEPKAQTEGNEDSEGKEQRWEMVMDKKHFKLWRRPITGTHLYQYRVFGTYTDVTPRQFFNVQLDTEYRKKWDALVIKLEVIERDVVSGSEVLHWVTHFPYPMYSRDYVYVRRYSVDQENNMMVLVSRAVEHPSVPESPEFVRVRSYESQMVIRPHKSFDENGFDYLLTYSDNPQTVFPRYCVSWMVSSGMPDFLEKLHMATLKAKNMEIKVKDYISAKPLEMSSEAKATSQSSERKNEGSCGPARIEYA
UniProt Q9NX76: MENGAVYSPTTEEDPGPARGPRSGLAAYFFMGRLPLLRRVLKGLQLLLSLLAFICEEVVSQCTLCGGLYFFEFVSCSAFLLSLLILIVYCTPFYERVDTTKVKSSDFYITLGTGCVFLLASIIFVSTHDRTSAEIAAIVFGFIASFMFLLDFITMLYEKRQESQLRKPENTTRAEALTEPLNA
UniProt Q9NUW8, whole entry: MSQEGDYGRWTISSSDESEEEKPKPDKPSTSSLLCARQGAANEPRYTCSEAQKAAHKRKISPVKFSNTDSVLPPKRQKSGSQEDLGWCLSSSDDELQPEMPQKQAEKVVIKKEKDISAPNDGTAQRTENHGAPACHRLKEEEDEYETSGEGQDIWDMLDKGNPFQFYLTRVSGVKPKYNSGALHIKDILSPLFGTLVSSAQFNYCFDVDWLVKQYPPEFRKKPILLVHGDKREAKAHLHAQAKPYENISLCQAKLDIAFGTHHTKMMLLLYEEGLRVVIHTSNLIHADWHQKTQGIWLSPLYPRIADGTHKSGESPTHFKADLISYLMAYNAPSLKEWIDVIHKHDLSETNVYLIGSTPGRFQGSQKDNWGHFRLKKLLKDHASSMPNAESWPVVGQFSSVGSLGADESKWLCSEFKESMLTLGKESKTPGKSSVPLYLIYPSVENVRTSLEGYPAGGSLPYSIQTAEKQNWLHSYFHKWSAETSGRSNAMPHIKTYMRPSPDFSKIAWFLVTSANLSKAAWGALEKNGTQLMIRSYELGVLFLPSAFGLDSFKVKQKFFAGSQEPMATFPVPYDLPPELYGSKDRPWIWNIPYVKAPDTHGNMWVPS
UniProt Q9NW13: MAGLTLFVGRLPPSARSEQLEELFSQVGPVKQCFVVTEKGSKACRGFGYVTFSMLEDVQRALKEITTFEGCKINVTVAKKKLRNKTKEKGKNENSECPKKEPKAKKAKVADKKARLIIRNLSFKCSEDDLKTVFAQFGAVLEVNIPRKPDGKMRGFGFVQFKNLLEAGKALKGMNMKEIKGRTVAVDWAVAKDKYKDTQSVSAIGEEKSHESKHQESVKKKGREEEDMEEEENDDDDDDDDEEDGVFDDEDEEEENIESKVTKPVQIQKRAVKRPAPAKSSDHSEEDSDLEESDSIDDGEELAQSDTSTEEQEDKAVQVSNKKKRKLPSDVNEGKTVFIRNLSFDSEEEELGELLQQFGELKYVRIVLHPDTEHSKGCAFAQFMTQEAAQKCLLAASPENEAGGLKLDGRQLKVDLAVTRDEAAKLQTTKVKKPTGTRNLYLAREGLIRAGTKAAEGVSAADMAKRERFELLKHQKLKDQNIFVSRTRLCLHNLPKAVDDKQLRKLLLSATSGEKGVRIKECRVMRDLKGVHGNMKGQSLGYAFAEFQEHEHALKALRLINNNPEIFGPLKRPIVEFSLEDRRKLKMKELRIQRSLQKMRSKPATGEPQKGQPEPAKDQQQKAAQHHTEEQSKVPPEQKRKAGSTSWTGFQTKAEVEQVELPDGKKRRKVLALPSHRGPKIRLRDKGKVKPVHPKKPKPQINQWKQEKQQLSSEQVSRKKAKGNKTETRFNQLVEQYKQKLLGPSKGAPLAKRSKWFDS
UniProt Q9NXR5: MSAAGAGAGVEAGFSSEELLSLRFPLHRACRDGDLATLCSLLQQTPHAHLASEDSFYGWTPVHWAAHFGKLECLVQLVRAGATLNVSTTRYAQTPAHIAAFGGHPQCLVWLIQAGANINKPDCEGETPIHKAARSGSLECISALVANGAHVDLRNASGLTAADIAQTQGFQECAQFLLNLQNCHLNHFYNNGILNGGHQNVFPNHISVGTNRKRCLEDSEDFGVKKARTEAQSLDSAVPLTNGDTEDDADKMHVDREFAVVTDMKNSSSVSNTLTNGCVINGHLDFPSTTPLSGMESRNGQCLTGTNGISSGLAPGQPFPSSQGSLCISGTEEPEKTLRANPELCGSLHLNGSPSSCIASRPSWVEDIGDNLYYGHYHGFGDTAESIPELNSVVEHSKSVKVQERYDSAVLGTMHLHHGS
UniProt Q9NWZ8: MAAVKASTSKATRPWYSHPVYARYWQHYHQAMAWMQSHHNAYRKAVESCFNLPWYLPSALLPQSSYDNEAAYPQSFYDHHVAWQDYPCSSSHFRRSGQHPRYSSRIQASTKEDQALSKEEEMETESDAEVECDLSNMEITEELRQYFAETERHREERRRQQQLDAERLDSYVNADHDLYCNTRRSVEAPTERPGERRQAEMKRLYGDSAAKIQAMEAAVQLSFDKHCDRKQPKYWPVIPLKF
UniProt Q9NUQ7: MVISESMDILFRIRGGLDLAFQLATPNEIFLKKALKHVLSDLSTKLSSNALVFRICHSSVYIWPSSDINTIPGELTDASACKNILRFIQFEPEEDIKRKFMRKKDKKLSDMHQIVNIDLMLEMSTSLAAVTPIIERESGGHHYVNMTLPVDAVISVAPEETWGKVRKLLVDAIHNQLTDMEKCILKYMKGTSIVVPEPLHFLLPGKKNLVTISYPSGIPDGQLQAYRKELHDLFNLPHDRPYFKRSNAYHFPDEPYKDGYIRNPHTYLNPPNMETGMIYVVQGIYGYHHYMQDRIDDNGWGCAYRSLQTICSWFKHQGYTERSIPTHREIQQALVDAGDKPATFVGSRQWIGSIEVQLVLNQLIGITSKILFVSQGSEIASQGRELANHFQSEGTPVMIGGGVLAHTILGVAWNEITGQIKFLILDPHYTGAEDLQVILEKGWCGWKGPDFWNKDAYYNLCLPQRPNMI

Target	NP40-soluble protein abundance
UniProt Q9NZC7 and related entries	0.9698 ± 0.0029
UniProt Q9NX04 and related entries	1.06 ± 0.059
IARS2 (UniProt Q9NSE4)	1.06 ± 0.1
DDX18 (UniProt Q9NVP1)	1.09 ± 0.028
UniProt Q9NUQ9 and related entries	0.9731 ± 0.0089
OSGEP (UniProt Q9NPF4)	1.02 ± 0.059
OXSM (UniProt Q9NWU1)	1.05 ± 0.12
RPRD1B (UniProt Q9NQG5)	0.909 ± 0.11
UniProt Q9NUL5	1.01 ± 0.04
UniProt Q9NYK6 and related entries	1.07 ± 0.024
UniProt Q9NVI7-2	0.954 ± 0.084
UniProt Q9P0I2	1.05 ± 0.064
UniProt Q9P035 and related entries	1.08 ± 0.11
MRPL16 (UniProt Q9NX20)	1.08 ± 0.14
ARMC1 (UniProt Q9NVT9)	0.919 ± 0.01
UniProt Q9NYP7 and related entries	1.09 ± 0.14
ARGLU1 (UniProt Q9NWB6)	1.03 ± 0.043
DDX21 (UniProt Q9NR30)	1.08 ± 0.028
LUC7L (UniProt Q9NQ29)	1.19 ± 0.049

3 records drawn at random from those above, as already listed:
Target	NP40-soluble protein abundance
UniProt Q9NX04 and related entries	1.06 ± 0.059
ARGLU1 (UniProt Q9NWB6)	1.03 ± 0.043
ARMC1 (UniProt Q9NVT9)	0.919 ± 0.01

(cont.)

Target	NP40-soluble protein abundance
STARD7 (UniProt Q9NQZ5)	0.992 ± 0.011
BIRC6 (UniProt Q9NR09)	1.02 ± 0.052
CMTM6 (UniProt Q9NX76)	0.946 ± 0.07
TDP1 (UniProt Q9NUW8)	1.04 ± 0.074
UniProt Q9NW64	1.03 ± 0.051
SACS (UniProt Q9NZJ4)	1.1 ± 0.038
RBM28 (UniProt Q9NW13)	1.02 ± 0.0049
UniProt Q9NXR5 and related entries	0.996 ± 0.094
UniProt Q9NVR5	1.04 ± 0.067
UniProt Q9NRG9 and related entries	1.08 ± 0.084
UniProt Q9NUL3-3|Q9NUL3-8|A0A0A0MTD1|E7EPX0 and related entries	0.956 ± 0.091
UniProt Q9NY12 and related entries	0.982 ± 0.068
SERINC1 (UniProt Q9NRX5)	1.01 ± 0.021
GEMIN8 (UniProt Q9NWZ8)	0.91 ± 0.16
UniProt Q9NQW7-3	1.04 ± 0.067
UniProt Q9NVX7-2|A0A075B6T4|Q9NVX7	1.03 ± 0.042
MRPL17 (UniProt Q9NRX2)	0.914 ± 0.2
UniProt Q9NUQ7 and related entries	1.11 ± 0.071
IRAK4 (UniProt Q9NWZ3)	1.04 ± 0.045
